Measurements reported in PubChem BioAssay AID504784 (Drosophila RNAi Screening Center, 2011)

- Screen: 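Fly genes whose silencing alters how much lipid cells keep in droplets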 (primary screen)
- System: Drosophila Kc167 embryonic cells
- Reagent: long dsRNA against Drosophila genes, about 250 ng dsRNA per well
- Duration: 4 days
- Challenge: cells fed 400 µM oleic acid bound to BSA
- Measured: 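Microscope images give a droplet-to-nucleus area ratio, taken as log and converted to a screen-wide B-score; higher values mean greater lipid storage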
- Scale: droplet/nuclear area B-score: higher = more stored lipid (overstorage)
In all, the deposit lists about 17,000 reagents; shown is an unselected part of those with a known target gene and a result. 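Each column is one replicate's B-score; the combined score over replicates was not deposited, so single values may mislead.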 Names joined by + are all predicted targets of the reagent. No sequences are given here.

gene	dsRNA	droplet/nuclear area B-score, replicate 1	droplet/nuclear area B-score, replicate 2	droplet/nuclear area B-score, replicate 3
HIP + HIP-R	DRSC18245	-0.326		
Acp53C14b (Accessory gland protein 53C14b)	DRSC06569	0.292	-0.00217	
Cyp9f3 (Cytochrome P450 9f3)	DRSC16636	-2.53	-1.43	
CG15539	DRSC15075	0.553	0.32	
CG4582	DRSC15605	0.0259	-0.726	
Rpn2 (Regulatory particle non-ATPase 2)	DRSC16839	0.000227	10.8	
CG14205	DRSC19560	-0.714	0.758	
CG13054	DRSC09935	-0.00662	1.12	
TrpRS (Tryptophanyl-tRNA synthetase)	DRSC14097	1.01	1.9	
dpr18 (defective proboscis extension response 18)	DRSC19606	-0.0655	-0.05	
br (broad)	DRSC17691	0.342	2.3	
br (broad)	DRSC17789	0.0419	-0.141	
br (broad)	DRSC18743	0.924	-1.02	-1.59
br (broad)	DRSC18744	0.745	0.239	
Sugb (Sugar baby)	DRSC10815	0.161	-0.759	
CG8461	DRSC16424	-0.078	1.59	
CG43902	DRSC17999	2.59	1.23	1.52
wuho	DRSC18101	-1.66		
Sf3b5 (Splicing factor 3b subunit 5)	DRSC14460	-5.57	-5.89	
tow (target of wingless)	DRSC10192	0.475	0.209	
tow (target of wingless)	DRSC23125	0.5	-0.58	
CG30325	DRSC05685	2.11	0.665	
Gr64a (Gustatory receptor 64a)	DRSC21713	1.74	0.00611	
CG8562	DRSC10995	0.4	0.0467	
CG31178	DRSC14590	-1.04	1.78	
acj6 (abnormal chemosensory jump 6)	DRSC20304	-2.03	-2.08	-0.332
Gr92a (Gustatory receptor 92a)	DRSC21631	-0.00998	-0.217	
Mos (Mos oncogene)	DRSC07258	-0.0106	-1.63	
CG3246	DRSC00584	-0.907	0.693	
CG8501	DRSC07198	0.219	1.1	
ATPsynCF6L (ATP synthase, coupling factor 6-like)	DRSC08232	-1.61	0.0305	
Ada2a (transcriptional Adaptor 2a)	DRSC16206	-1.24	-3.29	
Ada2a (transcriptional Adaptor 2a)	DRSC21598	-1.47	-1.13	
ftz-f1 (ftz transcription factor 1)	DRSC11347	0.317	-0.14	
CheA7a (Chemosensory protein A 7a)	DRSC17965	0.64	1.6	
Ir60a (Ionotropic receptor 60a)	DRSC04212	-0.197	-0.0996	
CG7694	DRSC16288	2.25	0.771	
ste24b (ste24b prenyl protease type I)	DRSC07315	0.975	3.26	
Nxt1 (NTF2-related export protein 1)	DRSC04630	-0.763	-1.16	
CG7006	DRSC16169	-0.748	0.441	
CG12290	DRSC14497	-0.0662		
CtsL4 (Cathepsin L4)	DRSC02849	-0.886	-0.247	
CG6996	DRSC10758	-0.101	-0.396	
CG16989	DRSC18535	1.21	0.532	
CG5435	DRSC02860	-0.526	-1.68	
CG4714	DRSC06883	-0.753	-0.887	
CG7016	DRSC16174	-1.49	0.545	
RhoGAPp190 (Rho GTPase activating protein p190)	DRSC20097	-1.28	-5.99	
RhoGAPp190 (Rho GTPase activating protein p190)	DRSC20099	-0.00563	-0.483	
Mys45A (Mystery 45A)	DRSC07067	2.17	3.17	
Cby (Chibby)	DRSC14591	0.00145	1.18	
Agxt (Alanine-glyoxylate aminotransferase)	DRSC18718	0.0461	-0.0214	-0.965
CG15638	DRSC01875	-0.452	-0.585	
orb (oo18 RNA-binding protein)	DRSC17021	-1.63	1.61	
orb (oo18 RNA-binding protein)	DRSC23148	1.53	-1.77	
CG12535	DRSC17838	-3.26	-0.143	
Oatp33Eb (Organic anion transporting polypeptide 33Eb)	DRSC02955	-0.385	-1.31	
CG5397	DRSC00683	0.000898	-1.09	
CG1620	DRSC06603	-3.33	-0.232	
CG11029	DRSC02119	0.409	0.09	
CG15870	DRSC06588	0.221	-0.334	
CG15905	DRSC06591	0.234	-0.0384	
CG13008	DRSC19527	2.13	1.14	
CG13008	DRSC19528	0.624	0.00311	
Naglu (N-acetyl-alpha-glucosaminidase)	DRSC02267	-2.05	-0.873	
CG32982	DRSC02677	-1.71	-0.0598	
CG32982	DRSC03268	-0.694	0.0924	-0.185
CG32982	DRSC03269	-0.228	2.55	
CG32982	DRSC21912	4.25	1.47	
CCT2 (Chaperonin containing TCP1 subunit 2)	DRSC18415	1.45	0.826	0.183
Sec24AB (Secretory 24AB)	DRSC06478	-0.00239	1.14	
Hcf (Host cell factor)	DRSC17143	1.94	1.36	
mRpS31 (mitochondrial ribosomal protein S31)	DRSC10556	1.92	-0.264	-0.338
CG9072	DRSC20147	0.0748	-0.68	
Syn1 + CG7370	DRSC22768	0.388	-0.824	
Bbd (Bombardier)	DRSC06709	0.0906	-0.691	
Mal-A2 (Maltase A2)	DRSC07460	2.55	0.00312	
Nup358 (Nucleoporin 358kD)	DRSC14410	5.22	2.22	
CG8010	DRSC20072	-3.17	-2.84	
CR42545 (pseudo)	DRSC03709	3.03	-0.575	
CG12231	DRSC19445	-0.236	-0.506	
CG1924	DRSC19823	0.336	0.166	-0.39
dnc (dunce)	DRSC17758	0.0819	1.69	
dnc (dunce)	DRSC17759	3.55	-0.0123	
dnc (dunce)	DRSC17911	2.06	1.01	
dnc (dunce)	DRSC18763	0.38	0.373	
dnc (dunce)	DRSC18764	0.00162	-2.21	

Records above whose target name begins with O or o (3):
gene	dsRNA	droplet/nuclear area B-score, replicate 1	droplet/nuclear area B-score, replicate 2	droplet/nuclear area B-score, replicate 3
orb (oo18 RNA-binding protein)	DRSC17021	-1.63	1.61	
orb (oo18 RNA-binding protein)	DRSC23148	1.53	-1.77	
Oatp33Eb (Organic anion transporting polypeptide 33Eb)	DRSC02955	-0.385	-1.31	
